From the supplement of paper PMC10849652
This is one part of the list.

Protein sequences, listed by entry. Tags and fused reporters are not part of them. Lines headed by an entry give the natural chain unless they say otherwise; changes in a name come on top.
UniProt Q53TN4: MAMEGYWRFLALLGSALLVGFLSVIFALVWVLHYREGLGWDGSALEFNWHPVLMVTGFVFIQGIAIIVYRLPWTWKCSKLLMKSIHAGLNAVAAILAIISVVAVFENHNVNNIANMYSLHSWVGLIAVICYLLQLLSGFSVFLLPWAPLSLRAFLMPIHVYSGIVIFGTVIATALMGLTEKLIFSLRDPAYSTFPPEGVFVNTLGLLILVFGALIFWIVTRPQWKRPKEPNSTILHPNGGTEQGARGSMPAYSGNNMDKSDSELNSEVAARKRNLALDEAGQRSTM
UniProt Q9Y600: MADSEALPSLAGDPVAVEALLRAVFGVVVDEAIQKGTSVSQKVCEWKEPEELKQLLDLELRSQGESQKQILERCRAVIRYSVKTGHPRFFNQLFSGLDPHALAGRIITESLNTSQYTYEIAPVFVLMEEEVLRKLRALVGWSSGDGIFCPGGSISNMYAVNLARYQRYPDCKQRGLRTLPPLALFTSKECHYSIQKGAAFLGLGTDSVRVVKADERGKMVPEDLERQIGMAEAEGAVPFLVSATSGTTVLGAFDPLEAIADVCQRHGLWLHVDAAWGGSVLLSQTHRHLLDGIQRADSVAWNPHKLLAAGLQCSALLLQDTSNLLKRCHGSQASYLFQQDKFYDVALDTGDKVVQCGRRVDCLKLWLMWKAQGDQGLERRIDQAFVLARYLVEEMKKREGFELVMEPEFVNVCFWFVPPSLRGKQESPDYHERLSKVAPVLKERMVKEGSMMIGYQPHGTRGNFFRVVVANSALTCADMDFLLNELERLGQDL
UniProt P43155: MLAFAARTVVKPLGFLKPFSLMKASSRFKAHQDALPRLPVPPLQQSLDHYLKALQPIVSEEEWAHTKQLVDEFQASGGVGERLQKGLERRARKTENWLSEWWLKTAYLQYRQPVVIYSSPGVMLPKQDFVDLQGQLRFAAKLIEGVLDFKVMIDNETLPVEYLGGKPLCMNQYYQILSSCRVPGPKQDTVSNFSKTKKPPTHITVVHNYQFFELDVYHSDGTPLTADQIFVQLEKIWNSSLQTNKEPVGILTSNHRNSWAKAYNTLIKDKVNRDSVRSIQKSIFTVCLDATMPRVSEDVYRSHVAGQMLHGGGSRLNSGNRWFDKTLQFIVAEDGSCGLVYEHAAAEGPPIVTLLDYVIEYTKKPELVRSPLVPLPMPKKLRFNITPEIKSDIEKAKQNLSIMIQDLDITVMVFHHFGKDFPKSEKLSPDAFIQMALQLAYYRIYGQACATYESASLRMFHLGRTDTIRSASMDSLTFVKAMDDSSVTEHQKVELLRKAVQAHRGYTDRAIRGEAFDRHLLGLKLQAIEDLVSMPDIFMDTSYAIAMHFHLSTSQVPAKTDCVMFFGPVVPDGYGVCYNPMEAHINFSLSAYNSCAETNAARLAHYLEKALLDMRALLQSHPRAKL
UniProt P54108: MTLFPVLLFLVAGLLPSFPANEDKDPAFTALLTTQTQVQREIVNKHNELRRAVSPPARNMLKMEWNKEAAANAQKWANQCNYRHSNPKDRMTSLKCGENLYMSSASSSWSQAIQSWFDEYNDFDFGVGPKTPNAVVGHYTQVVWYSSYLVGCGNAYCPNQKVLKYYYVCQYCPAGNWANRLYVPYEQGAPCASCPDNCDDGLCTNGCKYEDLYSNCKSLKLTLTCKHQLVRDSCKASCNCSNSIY
UniProt P49447: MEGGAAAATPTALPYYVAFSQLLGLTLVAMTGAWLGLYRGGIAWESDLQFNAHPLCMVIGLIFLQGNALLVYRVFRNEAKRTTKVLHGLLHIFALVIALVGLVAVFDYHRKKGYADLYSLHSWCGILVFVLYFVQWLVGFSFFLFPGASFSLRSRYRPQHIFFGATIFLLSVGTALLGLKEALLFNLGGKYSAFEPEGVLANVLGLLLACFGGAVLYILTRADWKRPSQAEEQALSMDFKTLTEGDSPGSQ
UniProt Q2NKJ3: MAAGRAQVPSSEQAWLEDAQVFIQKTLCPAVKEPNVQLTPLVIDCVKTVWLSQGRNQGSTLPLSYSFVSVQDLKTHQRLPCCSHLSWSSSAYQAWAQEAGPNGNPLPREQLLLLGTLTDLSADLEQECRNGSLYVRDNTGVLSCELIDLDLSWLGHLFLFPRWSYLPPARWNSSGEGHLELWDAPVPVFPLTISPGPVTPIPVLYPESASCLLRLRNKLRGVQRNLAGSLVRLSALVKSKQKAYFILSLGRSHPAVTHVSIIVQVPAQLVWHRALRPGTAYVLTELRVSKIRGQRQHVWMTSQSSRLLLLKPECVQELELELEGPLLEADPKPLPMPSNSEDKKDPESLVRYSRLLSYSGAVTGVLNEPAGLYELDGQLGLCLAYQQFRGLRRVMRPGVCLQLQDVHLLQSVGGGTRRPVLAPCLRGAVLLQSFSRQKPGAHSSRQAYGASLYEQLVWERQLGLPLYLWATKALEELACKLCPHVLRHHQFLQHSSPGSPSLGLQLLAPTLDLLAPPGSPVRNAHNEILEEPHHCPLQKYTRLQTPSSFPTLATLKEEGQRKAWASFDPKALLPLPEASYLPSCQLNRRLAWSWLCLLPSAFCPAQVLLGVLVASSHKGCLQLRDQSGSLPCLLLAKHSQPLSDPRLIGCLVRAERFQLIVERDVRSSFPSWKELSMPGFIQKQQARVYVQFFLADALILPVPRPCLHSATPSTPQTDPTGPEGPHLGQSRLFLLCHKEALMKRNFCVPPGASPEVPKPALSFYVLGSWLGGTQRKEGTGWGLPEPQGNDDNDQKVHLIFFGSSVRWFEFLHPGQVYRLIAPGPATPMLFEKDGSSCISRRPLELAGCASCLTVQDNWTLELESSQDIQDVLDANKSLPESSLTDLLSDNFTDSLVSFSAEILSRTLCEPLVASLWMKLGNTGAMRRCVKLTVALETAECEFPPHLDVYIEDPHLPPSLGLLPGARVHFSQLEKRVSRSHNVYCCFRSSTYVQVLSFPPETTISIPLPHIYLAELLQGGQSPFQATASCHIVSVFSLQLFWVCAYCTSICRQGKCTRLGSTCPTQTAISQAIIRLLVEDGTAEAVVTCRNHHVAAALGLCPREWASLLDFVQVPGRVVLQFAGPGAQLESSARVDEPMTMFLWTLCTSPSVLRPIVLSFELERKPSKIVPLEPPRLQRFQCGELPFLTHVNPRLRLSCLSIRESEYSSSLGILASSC
UniProt P08311: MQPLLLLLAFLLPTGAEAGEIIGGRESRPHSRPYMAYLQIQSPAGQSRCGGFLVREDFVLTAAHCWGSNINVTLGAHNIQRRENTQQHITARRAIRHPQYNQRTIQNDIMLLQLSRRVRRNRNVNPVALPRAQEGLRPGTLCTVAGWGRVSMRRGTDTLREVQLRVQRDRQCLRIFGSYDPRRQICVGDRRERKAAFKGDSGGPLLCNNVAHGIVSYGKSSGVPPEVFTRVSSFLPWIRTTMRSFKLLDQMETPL
UniProt P52943: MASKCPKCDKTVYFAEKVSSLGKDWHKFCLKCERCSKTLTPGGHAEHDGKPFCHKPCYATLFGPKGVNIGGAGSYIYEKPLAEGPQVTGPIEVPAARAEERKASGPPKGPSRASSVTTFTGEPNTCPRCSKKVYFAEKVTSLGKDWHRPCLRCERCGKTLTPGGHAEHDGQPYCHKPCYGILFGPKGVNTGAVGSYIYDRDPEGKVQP
UniProt Q9P2B4: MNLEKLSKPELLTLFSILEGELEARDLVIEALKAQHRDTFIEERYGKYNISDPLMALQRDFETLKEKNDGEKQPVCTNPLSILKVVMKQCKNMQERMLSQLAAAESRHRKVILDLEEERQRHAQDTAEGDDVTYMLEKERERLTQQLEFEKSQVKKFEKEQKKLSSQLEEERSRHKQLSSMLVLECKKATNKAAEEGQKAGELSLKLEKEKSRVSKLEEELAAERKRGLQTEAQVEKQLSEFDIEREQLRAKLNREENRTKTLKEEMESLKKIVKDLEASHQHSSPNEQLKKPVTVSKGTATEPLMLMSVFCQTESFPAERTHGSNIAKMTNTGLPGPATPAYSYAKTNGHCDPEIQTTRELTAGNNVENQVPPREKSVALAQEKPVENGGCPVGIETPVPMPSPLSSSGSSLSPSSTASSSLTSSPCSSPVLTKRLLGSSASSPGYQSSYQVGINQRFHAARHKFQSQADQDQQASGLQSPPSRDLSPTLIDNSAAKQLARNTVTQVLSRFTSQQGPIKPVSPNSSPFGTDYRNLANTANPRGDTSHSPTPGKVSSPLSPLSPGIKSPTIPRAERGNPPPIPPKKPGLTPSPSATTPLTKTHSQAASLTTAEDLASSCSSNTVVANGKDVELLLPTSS
UniProt Q6GPI1, whole entry, looked up: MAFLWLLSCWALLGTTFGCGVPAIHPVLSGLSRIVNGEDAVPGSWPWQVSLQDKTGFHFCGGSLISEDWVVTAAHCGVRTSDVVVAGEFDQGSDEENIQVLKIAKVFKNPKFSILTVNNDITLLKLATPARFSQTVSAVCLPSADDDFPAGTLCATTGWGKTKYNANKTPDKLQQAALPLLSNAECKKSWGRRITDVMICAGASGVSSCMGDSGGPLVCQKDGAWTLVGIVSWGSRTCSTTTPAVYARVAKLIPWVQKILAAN
UniProt Q9NSA3: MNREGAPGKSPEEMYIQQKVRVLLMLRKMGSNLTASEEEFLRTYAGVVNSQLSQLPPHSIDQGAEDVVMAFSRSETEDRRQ
UniProt Q03060: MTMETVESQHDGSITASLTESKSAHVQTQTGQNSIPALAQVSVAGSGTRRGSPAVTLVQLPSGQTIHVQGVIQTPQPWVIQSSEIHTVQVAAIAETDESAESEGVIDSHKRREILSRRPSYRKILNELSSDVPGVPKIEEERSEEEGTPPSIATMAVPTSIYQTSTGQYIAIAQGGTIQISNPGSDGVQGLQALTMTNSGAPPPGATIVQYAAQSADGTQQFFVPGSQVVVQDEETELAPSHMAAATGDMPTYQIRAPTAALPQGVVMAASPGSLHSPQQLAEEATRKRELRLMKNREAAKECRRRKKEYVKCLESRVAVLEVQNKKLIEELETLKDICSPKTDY

Key:
Assay in all cases: log2 fold change, soluble protein after heating vs DMSO (PISA); higher = thermal stabilisation; K562 lysate, 10 uM; active = over 0.2 and 3.5 SD of the protein, either way, in both replicates (recomputed)
[1] = compound: C#Cc1cccc(Nc2ncnc3cc(OCCOC)c(OCCOC)cc23)c1 [erlotinib]
In short: (§1)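 K562 pellets were dounce-homogenised in PBS pH 7.4 with 1 mM MgCl2, and the crude extract at 1 mg/mL protein was treated with 10 μM compound for 30 min. Aliquots were heated for 3 min across 48°C-58°C, pooled, and brought to 0.5% NP-40 at 4°C; soluble protein was the supernatant after 21,000xg for 90 min. Soluble protein was quantified by TMTpro 16plex LC-MS/MS with channel sums equalised, and reported as log2 fold change in thermal stability against DMSO controls, with values from duplicates.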

[2] = compound: C/C(=N\NC(=O)C1=CC(=CC=C1)S(=O)(=O)N2CCOCC2)/C3=C(C=CC(=C3)Cl)O
In short: as §1

[3] = compound: C1=CC(=CC=C1C2=NC3=C(N2)C=C(C=C3)C(=O)N)OC4=CC=C(C=C4)Cl
In short: as §1

[4] = compound: C1=CC2=C(C=CC(=C2)/C=C\3/C(=O)NC(=NCC4=CC=CS4)S3)N=C1
In short: as §1

[5] = compound: C1=CC2=NC=CN=C2C=C1/C=C/3\C(=O)NC(=O)S3
In short: as §1

[6] = compound: C1=CC=C2C(=C1)C3=NNC4=CC=CC(=C43)C2=O
In short: as §1

[7] = compound: C=CC(=O)N1CCC[C@@H](n2nc(-c3ccc(Oc4ccccc4)cc3)c3c(N)ncnc32)C1 [ibrutinib]
In short: as §1

[8] = compound: CC(=O)c1cnc2ccc(-c3cc(Cl)c(O)c(Cl)c3)nc2c1N[C@H]1CC[C@H](CN(C)C)CC1
In short: as §1

[9] = compound: CC(C)C1=C2N=C(C=C(N2N=C1)NCC3=CC=CC=C3)NCCCCCCN
In short: as §1

[10] = compound: CC1=C(C2=C(C=C1)C(=O)C3=CC=CC=C3N2CCCN)C
In short: as §1

[11] = compound: CC1=C(C=C(C=C1)NC(=O)C2=CC(=CC=C2)C(C)(C)C#N)NC3=CC4=C(C=C3)N=CN(C4=O)C
In short: as §1

[12] = compound: CC1=CC=C(C=C1)SC2=C3C=C(SC3=CN=C2)C(=O)N
In short: as §1

[13] = compound: C1=CC=C(C=C1)C2=NC(=C(N2)C3=CC=NC=C3)C4=CC(=C(C=C4)Cl)O
In short: as §1

[14] = compound: C1COCCN1CCN2C3=CC=CC=C3N=C2NC(=O)C4=CC(=CC=C4)[N+](=O)[O-] [IRAK-1-4 Inhibitor I]
In short: as §1

[15] = compound: CC(C)(C)Cn1c(N)nc2ccc(-c3[nH]c(C(C)(C)C)nc3-c3ccc(F)cc3)nc21 [ralimetinib]
In short: as §1

[16] = compound: CC(C)(O)CC(=O)NCCn1ccc2ncnc(Nc3ccc(Oc4cccc(C(F)(F)F)c4)c(Cl)c3)c21
In short: as §1

[17] = compound: CC1=C(C=C(C=C1)NC(=O)C2=CC(=CC=C2)N(C)C)NC(=O)C3=CC=C(C=C3)O
In short: as §1

[18] = compound: CC1=C(C(CC(=O)N1)C2=CC=C(C=C2)C(F)(F)F)C(=O)NC3=C(C=C4C(=C3)C=NN4)F
In short: as §1

[19] = compound: C1CCN(C1)C(=O)NC2=CC=CC(=C2)NC3=NC=C(C(=N3)NCCC4=CN=CN4)Br
In short: as §1

[20] = compound: C1CN(CCC1(CC2=CC=C(C=C2)Cl)N)C3=NC=NC4=C3C=CN4
In short: as §1

Measured: log2 fold change

CYBRD1 (UniProt Q53TN4)
inactive: [1] -0.08 | [2] 0.115 | [3] 0.008 | [4] -0.05 | [5] 0.004 | [6] -0.015 | [7] 0.059 | [8] -0.02 | [9] -0.018 | [10] -0.06 | [11] 0.01 | [12] -0.006

CSAD isoform 3 (UniProt Q9Y600)
inactive: [1] -0.02 | [3] 0.064 | [5] -0.115 | [13] 0.044 | [14] -0.02 | [7] -0.224 | [15] -0.019 | [16] -0.048 | [9] 0.041 | [11] -0.027 | [17] -0.033

CRAT (UniProt P43155)
inactive: [1] 0.054 | [2] 0.043 | [3] 0.013 | [4] 0.03 | [5] -0.232 | [13] 0.031 | [6] -0.096 | [14] 0.017 | [7] 0.001 | [8] -0.008 | [15] 0.008 | [16] 0.012 | [9] 0.001 | [10] -0.053 | [11] -0.246 | [17] -0.039 | [12] -0.081

CRISP3 isoform 3 (UniProt P54108)
inactive: [1] -0.578 | [3] -0.113 | [13] -0.006 | [14] -0.238 | [15] -0.047 | [16] 0 | [9] 0.151 | [18] 1.34 | [10] -0.378 | [17] 0.24

CYB561 (UniProt P49447)
inactive: [1] 0.136 | [2] -0.126 | [3] -0.076 | [4] 0.034 | [5] 0.019 | [13] 0.176 | [6] 0 | [19] -0.014 | [20] 0.211 | [14] 0.136 | [7] 0.161 | [8] -0.099 | [15] -0.15 | [16] 0.031 | [9] 0.137 | [10] -0.037 | [11] 0.19 | [17] -0.017 | [12] -0.035

CS (UniProt F8VU34)
inactive: [1] 0.047 | [3] 0.212 | [5] -0.151 | [13] -0.084 | [14] 0.345 | [7] 0.03 | [8] -0.245 | [15] -0.158 | [16] -0.018 | [9] -0.071 | [10] -0.275 | [17] 0.044 | [12] -0.008

CTC1 (UniProt Q2NKJ3)
inactive: [1] 0.047 | [2] -0.023 | [3] -0.084 | [4] -0.069 | [5] 0.014 | [13] -0.012 | [6] -0.066 | [19] 0.053 | [20] 0.033 | [14] 0.053 | [7] -0.069 | [15] -0.047 | [16] 0.005 | [9] 0.106 | [18] 0.053 | [10] -0.084 | [11] -0.016 | [17] 0.045

CTSG (UniProt P08311)
inactive: [1] 0.182 | [3] -0.028 | [13] 0.014 | [14] 0.123 | [15] -0.135 | [16] -0.117 | [9] 0.043 | [18] -0.006 | [10] 0.04 | [11] -0.205 | [17] -0.043

Reprinted at random: 2 records from the list.
CTSG (UniProt P08311)
inactive: [1] 0.182 | [3] -0.028 | [13] 0.014 | [14] 0.123 | [15] -0.135 | [16] -0.117 | [9] 0.043 | [18] -0.006 | [10] 0.04 | [11] -0.205 | [17] -0.043

CYB561 (UniProt P49447)
inactive: [1] 0.136 | [2] -0.126 | [3] -0.076 | [4] 0.034 | [5] 0.019 | [13] 0.176 | [6] 0 | [19] -0.014 | [20] 0.211 | [14] 0.136 | [7] 0.161 | [8] -0.099 | [15] -0.15 | [16] 0.031 | [9] 0.137 | [10] -0.037 | [11] 0.19 | [17] -0.017 | [12] -0.035

Next entries

CRIP2 isoform 2 (UniProt P52943)
inactive: [1] 0.023 | [3] -0.125 | [5] 0.033 | [13] 0.078 | [14] 0.054 | [7] 0.214 | [8] 0.008 | [15] -0.042 | [16] 0.131 | [9] -0.022 | [18] 0.05 | [10] 0.186 | [11] 0.082 | [17] 0.112 | [12] -0.07

CTTNBP2NL (UniProt Q9P2B4)
inactive: [2] 0.097 | [4] -0.289 | [5] -0.05 | [13] -0.037 | [6] -0.121 | [19] -0.117 | [20] 0.197 | [14] 0.044 | [7] -0.017 | [8] 0.076 | [15] -0.039 | [16] -0.037 | [18] -0.005 | [11] 0.015 | [17] 0.021 | [12] -0.024

CTRB2 (UniProt Q6GPI1)
inactive: [2] 0.001 | [4] -0.055 | [6] -0.055 | [19] 0.05 | [20] -0.06 | [8] 0.01 | [18] -0.136 | [12] 0.046

CTBP1 (UniProt E7ESU7)
inactive: [18] 0.032

CTNNBIP1 (UniProt Q9NSA3)
inactive: [1] -0.149 | [3] 0.066 | [9] 0.022 | [10] 0.074

CRTC2 (UniProt H0YDQ8)
inactive: [2] 0.017 | [4] 0.057 | [13] 0.018 | [6] -0.075 | [14] 0.03 | [15] -0.056 | [16] -0.102 | [17] 0.128

CREM isoform 1 (UniProt Q03060)
inactive: [5] 0.027 | [13] -0.046 | [14] 0.042 | [7] 0.032 | [8] -0.001 | [15] -0.049 | [16] -0.075 | [18] -0.007 | [10] -0.07 | [11] 0.034 | [17] 0.032 | [12] -0.037
